Measurements published in paper doi:10.1101/2025.02.28.640611.
No constants are given. Whether binding was seen depends on the method and setting. Binding seen in cells or lysates may run through a third protein. Some results given as binding are weak or reduced against the parent protein; the word gives no strength.

Amino acid sequences for entries named in this document (tags omitted).
UniProt Q8DST7: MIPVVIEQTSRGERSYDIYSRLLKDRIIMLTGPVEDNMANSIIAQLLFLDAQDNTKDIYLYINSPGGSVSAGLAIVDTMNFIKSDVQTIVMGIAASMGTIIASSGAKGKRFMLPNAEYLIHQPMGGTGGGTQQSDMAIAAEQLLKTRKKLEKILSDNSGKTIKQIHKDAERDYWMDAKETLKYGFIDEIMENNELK
UniProt Q8DUI0: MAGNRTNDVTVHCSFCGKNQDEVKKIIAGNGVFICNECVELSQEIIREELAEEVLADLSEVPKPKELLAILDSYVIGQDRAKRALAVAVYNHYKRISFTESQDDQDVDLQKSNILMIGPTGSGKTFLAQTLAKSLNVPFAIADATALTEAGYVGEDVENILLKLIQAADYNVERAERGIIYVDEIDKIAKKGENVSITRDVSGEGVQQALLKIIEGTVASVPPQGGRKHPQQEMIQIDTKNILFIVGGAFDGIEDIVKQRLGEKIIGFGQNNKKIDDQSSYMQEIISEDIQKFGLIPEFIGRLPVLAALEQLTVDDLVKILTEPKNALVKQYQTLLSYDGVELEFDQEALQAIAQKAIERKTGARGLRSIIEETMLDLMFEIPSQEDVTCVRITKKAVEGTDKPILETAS

Molecular target: ClpP fused to an N-terminal fragment of GFP (split GFP) (S. mutans) (UniProt Q8DST7)
Experiment: split reporter

Question: “ClpX fused to a C-terminal fragment of GFP (split GFP) (from UniProt Q8DUI0 1-410) (enzyme)” was tested. Which binding did it give?
Answer: binds
